Laboratory results from publication PMC7498331.
These are yes or no findings as the source states them, for the method shown. Binding seen in cells or lysates may run through a third protein. Some results given as binding are weak or reduced against the parent protein; the word gives no strength.

Sequences of proteins named here, by UniProt entry; tags and fusion partners are left off.
UniProt Q8CJB9: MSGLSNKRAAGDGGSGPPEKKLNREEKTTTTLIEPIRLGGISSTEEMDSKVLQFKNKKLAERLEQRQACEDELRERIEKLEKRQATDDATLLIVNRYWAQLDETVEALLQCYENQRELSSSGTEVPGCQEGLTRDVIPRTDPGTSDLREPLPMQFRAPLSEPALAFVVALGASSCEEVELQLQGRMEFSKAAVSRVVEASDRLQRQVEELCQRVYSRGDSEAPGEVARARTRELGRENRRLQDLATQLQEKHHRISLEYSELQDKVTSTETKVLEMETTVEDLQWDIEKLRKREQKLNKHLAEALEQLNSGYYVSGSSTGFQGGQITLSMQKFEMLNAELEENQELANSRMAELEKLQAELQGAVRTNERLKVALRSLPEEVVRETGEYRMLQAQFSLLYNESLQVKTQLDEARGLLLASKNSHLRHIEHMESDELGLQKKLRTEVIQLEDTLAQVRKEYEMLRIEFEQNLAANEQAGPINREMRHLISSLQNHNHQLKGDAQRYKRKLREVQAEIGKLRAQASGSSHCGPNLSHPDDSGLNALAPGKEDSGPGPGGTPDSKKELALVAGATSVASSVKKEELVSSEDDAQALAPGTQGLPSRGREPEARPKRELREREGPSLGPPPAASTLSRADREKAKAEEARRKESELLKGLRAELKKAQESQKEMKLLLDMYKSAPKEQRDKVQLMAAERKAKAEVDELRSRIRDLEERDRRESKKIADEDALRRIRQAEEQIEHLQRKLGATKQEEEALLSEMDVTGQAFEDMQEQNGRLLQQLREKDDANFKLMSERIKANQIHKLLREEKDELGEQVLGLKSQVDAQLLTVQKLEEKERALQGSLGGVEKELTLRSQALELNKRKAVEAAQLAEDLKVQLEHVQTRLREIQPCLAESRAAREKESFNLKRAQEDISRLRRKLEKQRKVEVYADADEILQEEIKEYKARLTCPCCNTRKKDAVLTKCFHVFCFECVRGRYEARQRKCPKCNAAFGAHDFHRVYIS

Target: Endogenous Rnf40 (rat (endogenous in primary rat Schwann cells)) (UniProt Q8CJB9)
Assay: co-IP; endogenous proteins; whole cell extracts of primary rat Schwann cells treated for 3 days with dibutyryl-cAMP, neuregulin and insulin; precipitation with anti-Rnf40 or anti-Rnf20 antibodies (IgG control) and protein A sepharose overnight at 4°C; western blot for Egr2

Endogenous Egr2 (from UniProt P51774 1-470)
binding: binds
